No constants are given. Whether binding was seen depends on the method and setting. In cells and extracts the contact can be indirect. A result given as binding can be weak or reduced; the word gives no strength.
Target: FB7Δh3 (UniProt P09629)
Experiment: co-IP; Flag-tagged HOXB7 or its deletion/mutant constructs transiently transfected into CHO cells together with a PARP expression construct; immunoprecipitation with FLAG antibodies, immunoblot with PARP antibodies (the methods say HEK293T, myc-tagged PARP1, anti-myc blot)

Amino acid sequences for entries named in this document (tags omitted). A change or cut given only in a name is not applied to a line headed by its entry.
UniProt P09629: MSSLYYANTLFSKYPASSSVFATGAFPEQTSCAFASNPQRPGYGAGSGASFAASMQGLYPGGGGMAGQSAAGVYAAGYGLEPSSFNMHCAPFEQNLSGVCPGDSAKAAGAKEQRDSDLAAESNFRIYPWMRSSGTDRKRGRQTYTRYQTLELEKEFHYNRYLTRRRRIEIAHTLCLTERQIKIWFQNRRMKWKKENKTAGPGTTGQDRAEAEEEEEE
UniProt P09874: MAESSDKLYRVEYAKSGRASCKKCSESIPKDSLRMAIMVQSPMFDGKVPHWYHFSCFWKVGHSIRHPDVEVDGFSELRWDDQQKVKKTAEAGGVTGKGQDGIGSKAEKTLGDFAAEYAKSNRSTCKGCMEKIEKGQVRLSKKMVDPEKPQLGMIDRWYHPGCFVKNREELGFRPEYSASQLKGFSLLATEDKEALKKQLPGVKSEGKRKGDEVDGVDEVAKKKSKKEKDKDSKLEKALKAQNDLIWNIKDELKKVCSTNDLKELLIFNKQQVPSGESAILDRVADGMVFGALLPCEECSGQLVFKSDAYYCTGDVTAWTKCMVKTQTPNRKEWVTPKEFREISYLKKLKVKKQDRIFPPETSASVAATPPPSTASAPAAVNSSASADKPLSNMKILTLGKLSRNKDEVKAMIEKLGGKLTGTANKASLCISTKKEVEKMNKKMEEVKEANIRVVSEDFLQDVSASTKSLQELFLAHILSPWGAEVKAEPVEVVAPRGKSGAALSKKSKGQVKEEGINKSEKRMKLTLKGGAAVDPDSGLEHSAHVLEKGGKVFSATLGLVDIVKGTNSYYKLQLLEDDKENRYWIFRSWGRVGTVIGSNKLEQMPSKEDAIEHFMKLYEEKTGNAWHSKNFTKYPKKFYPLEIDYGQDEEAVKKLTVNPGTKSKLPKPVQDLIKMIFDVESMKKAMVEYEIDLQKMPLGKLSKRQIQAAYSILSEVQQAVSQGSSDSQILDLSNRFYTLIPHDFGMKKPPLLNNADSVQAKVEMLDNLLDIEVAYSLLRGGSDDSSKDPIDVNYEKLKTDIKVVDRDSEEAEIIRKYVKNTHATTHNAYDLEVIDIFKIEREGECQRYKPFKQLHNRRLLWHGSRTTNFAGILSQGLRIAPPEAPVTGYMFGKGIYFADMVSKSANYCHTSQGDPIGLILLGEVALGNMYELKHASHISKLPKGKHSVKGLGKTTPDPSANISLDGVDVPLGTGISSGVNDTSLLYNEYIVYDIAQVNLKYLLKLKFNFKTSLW

Substance: PARP-1 from a PARP expression construct (PARPpCR3.1), in CHO cells (from UniProt P09874 1-1014) (enzyme)
- binding: binds

From publication PMC3402478, “ADP Ribosylation by PARP-1 Suppresses HOXB7 Transcriptional Activity”
